PubChem BioAssay AID1259308 | NCATS | 2017

- Test: 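Genes whose loss raises luciferase production in HEK293 cells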 (primary screen)
- Cell system: human HEK293 embryonic kidney cells stably expressing firefly luciferase (HEK-CMV-Luc2-Hygro)
- Reagents: single siRNA against human genes, 0.8 pmol siRNA per well
- Timing: 72 h
- Detection: 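Luciferase light (ONE-Glo) measured on one replicate plate set and viability (CellTiter-Glo) on the other, scaled to a negative control siRNA, with robust z-scores and luciferase per cell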
- Scale: total luciferase, z-score: higher = more reporter protein produced
- Hit rule: 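An siRNA counts as active if its total luciferase robust z-score exceeds 3; genes with two or more such siRNAs out of three were retested with fresh siRNAs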
- Calls: active = raised luciferase; inactive = no rise
This is a random part of about 59,000 reagents. About 1,510 of them (2.6%) were called active. 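Calls use total luciferase alone and ignore viability, so some active siRNAs may act by altering cell number.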 Entries without a mark were called inactive. The numbers tell different reagents against one gene apart. Further read-outs or replicates are left out here.

CASP14 (GeneID 23581) #1
- total luciferase, z-score: -0.199

CASP14 (GeneID 23581) #2
- total luciferase, z-score: -1.01

CASP14 (GeneID 23581) #3
- total luciferase, z-score: 5.24 (active)

MYL9 (GeneID 10398) #1
- total luciferase, z-score: -0.961

MYL9 (GeneID 10398) #2
- total luciferase, z-score: -1.28

MYL9 (GeneID 10398) #3
- total luciferase, z-score: -0.783

KRTAP4-2 (GeneID 85291) #1
- total luciferase, z-score: -0.344

KRTAP4-2 (GeneID 85291) #2
- total luciferase, z-score: -1.32

KRTAP4-2 (GeneID 85291) #3
- total luciferase, z-score: 5.72 (active)

TNFSF15 (GeneID 9966) #1
- total luciferase, z-score: -0.687

TNFSF15 (GeneID 9966) #2
- total luciferase, z-score: 4.42 (active)

TNFSF15 (GeneID 9966) #3
- total luciferase, z-score: 1.92

FUBP1 (GeneID 8880) #1
- total luciferase, z-score: -1.45

FUBP1 (GeneID 8880) #2
- total luciferase, z-score: -0.503

FUBP1 (GeneID 8880) #3
- total luciferase, z-score: -0.948

LOC729973 (GeneID 729973) #1
- total luciferase, z-score: 1.82

LOC729973 (GeneID 729973) #2
- total luciferase, z-score: 0.182

LOC729973 (GeneID 729973) #3
- total luciferase, z-score: -0.321

Reformatted: 4 of the entries above.
gene symbol | reagent | total luciferase, z-score
TNFSF15 (GeneID 9966) | 3 | 1.92
FUBP1 (GeneID 8880) | 1 | -1.45
FUBP1 (GeneID 8880) | 2 | -0.503
FUBP1 (GeneID 8880) | 3 | -0.948

Continued:
KCNG2 (GeneID 26251) #1
- total luciferase, z-score: -0.149

KCNG2 (GeneID 26251) #2
- total luciferase, z-score: 1.06

KCNG2 (GeneID 26251) #3
- total luciferase, z-score: 3.92 (active)

ANAPC4 (GeneID 29945) #1
- total luciferase, z-score: -1.71

ANAPC4 (GeneID 29945) #2
- total luciferase, z-score: -0.44

ANAPC4 (GeneID 29945) #3
- total luciferase, z-score: -0.469

PKP2 (GeneID 5318) #1
- total luciferase, z-score: -0.41

PKP2 (GeneID 5318) #2
- total luciferase, z-score: 0.787

PKP2 (GeneID 5318) #3
- total luciferase, z-score: 0.365

ATP2B1 (GeneID 490) #1
- total luciferase, z-score: 1.38

ATP2B1 (GeneID 490) #2
- total luciferase, z-score: 0.438

ATP2B1 (GeneID 490) #3
- total luciferase, z-score: 0.341

MAP1S (GeneID 55201) #1
- total luciferase, z-score: -0.87

MAP1S (GeneID 55201) #2
- total luciferase, z-score: 2.85

MAP1S (GeneID 55201) #3
- total luciferase, z-score: -1.54
